Taken from: PubChem BioAssay AID1259308 (NCATS, 2017)
This is an unselected part of about 59,000 deposited reagents. Of all reagents, about 1,510 (2.6%) got an active call. 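Calls use total luciferase alone and ignore viability, so some active siRNAs may act by altering cell number.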 Reagents against one gene are numbered here. Not all columns of the deposit are shown.

- Assay: 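Genes whose loss raises luciferase production in HEK293 cells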 (primary screen)
- System: human HEK293 embryonic kidney cells stably expressing firefly luciferase (HEK-CMV-Luc2-Hygro)
- Knock-down reagent: single siRNA against human genes, 0.8 pmol siRNA per well
- Duration: 72 h
- Read-out: 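Reporter luminescence and viable-cell signal on separate replicate plates, given as percent of non-targeting control and median/MAD z-scores, plus per-cell luciferase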
- Reading the numbers: total luciferase, z-score and total luciferase, % of control: higher = more reporter protein produced
- Active means: 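Active when the median/MAD z-score for overall luciferase is greater than 3; a gene was taken forward for validation with new siRNAs if at least two of its three siRNAs passed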
- Meaning of the calls: active = raised luciferase; inactive = no rise

Against ZFR2 #1 the deposit lists total luciferase, z-score -0.636; total luciferase, % of control 69.2; inactive.
After knock-down of ZFR2 #2, the record shows total luciferase, z-score 0.692; total luciferase, % of control 95.7; inactive.
With knock-down of ZFR2 #3, the screen gave total luciferase, z-score 0.947; total luciferase, % of control 101; inactive.
After knock-down of ALDH9A1 #1, the record shows total luciferase, z-score -0.192; total luciferase, % of control 78.1; inactive.
ALDH9A1 #2 gave total luciferase, z-score -0.661; total luciferase, % of control 68.7; inactive.
ALDH9A1 #3 showed total luciferase, z-score -0.813; total luciferase, % of control 65.7; inactive.
Against OPRM1 #1 the deposit lists total luciferase, z-score -0.659; total luciferase, % of control 68.8; inactive.
After knock-down of OPRM1 #2, the record shows total luciferase, z-score -0.154; total luciferase, % of control 78.8; inactive.
OPRM1 #3 scored total luciferase, z-score 0.497; total luciferase, % of control 91.8; inactive.
ZNF513 #1 gave total luciferase, z-score 0.221; total luciferase, % of control 86.3; inactive.
Silencing of ZNF513 #2 gave: total luciferase, z-score 0.657; total luciferase, % of control 94.9; inactive.
Depletion of ZNF513 #3 gave: total luciferase, z-score 0.175; total luciferase, % of control 85.4; inactive.
For GFRA3 #1, the entry reads total luciferase, z-score -0.479; total luciferase, % of control 72.4; inactive.
For GFRA3 #2, the entry reads total luciferase, z-score -0.387; total luciferase, % of control 74.2; inactive.
Against GFRA3 #3, the entry reads total luciferase, z-score 0.702; total luciferase, % of control 95.8; inactive.
After knock-down of GPR37L1 #1 the results were total luciferase, z-score -0.193; total luciferase, % of control 78; inactive.
Knock-down of GPR37L1 #2 resulted in: total luciferase, z-score -0.535; total luciferase, % of control 71.2; inactive.
For GPR37L1 #3, the entry reads total luciferase, z-score 0.21; total luciferase, % of control 86.1; inactive.
Depletion of KRT18P55 #1 came out at: total luciferase, z-score 0.725; total luciferase, % of control 96.3; inactive.
KRT18P55 #2 scored total luciferase, z-score 0.0845; total luciferase, % of control 83.6; inactive.
KRT18P55 #3 gave total luciferase, z-score 0.393; total luciferase, % of control 89.7; inactive.
Against NOL8 #1, the entry reads total luciferase, z-score -0.924; total luciferase, % of control 63.5; inactive.
Knock-down of NOL8 #2 gave: total luciferase, z-score -0.632; total luciferase, % of control 69.3; inactive.
NOL8 #3 showed total luciferase, z-score -2.2; total luciferase, % of control 38.2; inactive.
Depletion of BLOC1S5 #1 gave: total luciferase, z-score 0.725; total luciferase, % of control 96.3; inactive.
Knock-down of BLOC1S5 #2 came out at: total luciferase, z-score 2.3; total luciferase, % of control 128; inactive.
BLOC1S5 #3 gave total luciferase, z-score -0.925; total luciferase, % of control 63.5; inactive.
For EDARADD #1 the deposit lists total luciferase, z-score -1.6; total luciferase, % of control 50; inactive.
EDARADD #2 showed total luciferase, z-score -1.06; total luciferase, % of control 60.8; inactive.
Depletion of EDARADD #3 gave: total luciferase, z-score -0.108; total luciferase, % of control 79.7; inactive.
Silencing of ILF3 #1 came out at: total luciferase, z-score -0.474; total luciferase, % of control 72.5; inactive.
Depletion of ILF3 #2 came out at: total luciferase, z-score 0.103; total luciferase, % of control 83.9; inactive.
After knock-down of ILF3 #3 the results were total luciferase, z-score 0.0435; total luciferase, % of control 82.8; inactive.
Knock-down of CTCFL #1 came out at: total luciferase, z-score -0.363; total luciferase, % of control 74.7; inactive.
After knock-down of CTCFL #2 the results were total luciferase, z-score 2.41; total luciferase, % of control 130; inactive.
For CTCFL #3, the entry reads total luciferase, z-score 2.33; total luciferase, % of control 128; inactive.
Depletion of EPS15L1 #1 came out at: total luciferase, z-score 0.0613; total luciferase, % of control 83.1; inactive.
EPS15L1 #2 gave total luciferase, z-score -0.0732; total luciferase, % of control 80.4; inactive.
EPS15L1 #3 gave total luciferase, z-score 0.139; total luciferase, % of control 84.6; inactive.
After knock-down of SLC2A3 #1, the screen gave total luciferase, z-score -0.731; total luciferase, % of control 67.3; inactive.
For SLC2A3 #2 the deposit lists total luciferase, z-score 2.35; total luciferase, % of control 129; inactive.
With knock-down of SLC2A3 #3, the screen gave total luciferase, z-score -0.572; total luciferase, % of control 70.5; inactive.
